Data published in patent publication US20060204957A1, “Mta1s, a steriod hormone receptor corepressor” (priority 2002, published 2006).
Results are given in words; binding and its absence hold for the method and conditions named. For some of these results: In cells and extracts the contact can be indirect. Some binding calls cover weakened binding; strength is not graded here.

Chains of the proteins cited; added tags and fusions are not shown. Lines headed by an entry give the natural chain unless they say otherwise; changes in a name come on top. Residues count along the entry.
UniProt P01106, residues 16-454: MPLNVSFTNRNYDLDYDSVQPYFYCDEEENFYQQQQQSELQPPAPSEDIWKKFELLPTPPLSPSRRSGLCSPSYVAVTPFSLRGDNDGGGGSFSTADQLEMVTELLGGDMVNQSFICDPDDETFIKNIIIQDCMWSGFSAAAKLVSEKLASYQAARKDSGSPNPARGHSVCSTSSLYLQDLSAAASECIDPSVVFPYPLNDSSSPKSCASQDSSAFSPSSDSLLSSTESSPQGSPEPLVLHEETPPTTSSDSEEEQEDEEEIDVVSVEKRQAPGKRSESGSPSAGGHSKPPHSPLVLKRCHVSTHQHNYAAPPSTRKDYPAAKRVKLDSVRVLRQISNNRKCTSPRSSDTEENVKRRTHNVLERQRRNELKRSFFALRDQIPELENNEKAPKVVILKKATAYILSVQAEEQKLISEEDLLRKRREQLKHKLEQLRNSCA
UniProt P03372: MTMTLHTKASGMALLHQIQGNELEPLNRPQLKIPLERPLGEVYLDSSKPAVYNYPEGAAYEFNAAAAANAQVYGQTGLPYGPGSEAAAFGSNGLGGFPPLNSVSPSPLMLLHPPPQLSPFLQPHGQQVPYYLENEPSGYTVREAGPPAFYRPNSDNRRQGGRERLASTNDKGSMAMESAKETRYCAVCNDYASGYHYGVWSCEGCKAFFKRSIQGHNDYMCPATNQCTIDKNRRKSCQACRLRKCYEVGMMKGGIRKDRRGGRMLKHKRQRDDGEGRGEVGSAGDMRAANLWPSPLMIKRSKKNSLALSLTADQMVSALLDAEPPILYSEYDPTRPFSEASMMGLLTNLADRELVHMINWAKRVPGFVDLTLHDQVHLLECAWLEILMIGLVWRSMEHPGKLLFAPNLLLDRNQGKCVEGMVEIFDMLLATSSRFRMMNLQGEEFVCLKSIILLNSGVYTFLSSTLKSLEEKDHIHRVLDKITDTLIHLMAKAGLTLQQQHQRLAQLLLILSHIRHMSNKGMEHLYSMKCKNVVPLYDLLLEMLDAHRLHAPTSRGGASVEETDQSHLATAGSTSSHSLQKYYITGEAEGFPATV
GST-AF2 domain of the ER: residues 282-595 of P03372
UniProt Q13330: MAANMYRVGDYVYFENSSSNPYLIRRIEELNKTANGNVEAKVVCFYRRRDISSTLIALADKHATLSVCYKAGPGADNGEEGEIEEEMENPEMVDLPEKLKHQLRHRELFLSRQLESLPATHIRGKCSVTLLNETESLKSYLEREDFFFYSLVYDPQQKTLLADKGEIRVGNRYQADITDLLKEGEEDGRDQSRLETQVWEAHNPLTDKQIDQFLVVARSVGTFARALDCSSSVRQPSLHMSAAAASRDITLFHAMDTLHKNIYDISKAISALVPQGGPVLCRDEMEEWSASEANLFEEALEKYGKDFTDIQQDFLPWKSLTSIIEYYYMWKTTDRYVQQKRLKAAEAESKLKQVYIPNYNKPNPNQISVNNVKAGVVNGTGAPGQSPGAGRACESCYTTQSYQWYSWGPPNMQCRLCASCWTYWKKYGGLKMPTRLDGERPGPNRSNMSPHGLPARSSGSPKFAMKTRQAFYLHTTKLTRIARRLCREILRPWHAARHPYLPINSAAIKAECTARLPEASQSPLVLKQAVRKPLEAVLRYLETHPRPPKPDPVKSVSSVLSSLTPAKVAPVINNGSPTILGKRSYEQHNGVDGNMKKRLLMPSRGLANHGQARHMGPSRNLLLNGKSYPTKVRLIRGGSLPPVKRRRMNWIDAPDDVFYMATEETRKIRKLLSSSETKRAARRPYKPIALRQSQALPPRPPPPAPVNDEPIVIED

Experiments:
c-Myc Oncogene = c-Myc Oncogene (UniProt P01106); assay: FIG. 14 legend
Estrogen Receptor α (ER) = Estrogen Receptor α (ER) (UniProt P03372); assay: FIG. 3 legend (immunoprecipitation, GST pull-down)
GST-AF2 domain of the ER = GST-AF2 domain of the ER (UniProt P03372); assay: GST pull-down with the GST-AF2 domain of the ER (FIG. 3G)
GST-ER = GST-ER (UniProt P03372); assay: GST pull-down (FIG. 3F)

Measured: binding

MTA1s (from UniProt Q13330 1-397)
binds: all assays above
